From the supplement of paper PMC5949888
Most values lie at the floor of the assay. Slopes are relative: functional sequences can read slightly below zero.

What follows are substances tested on Saccharomyces cerevisiae PS128 hsf1 delta, HSF1(1-493) fusion (assay: growth estimate (transactivation domain function in HSF1 fusion, heat-shock survival) (a.u. (slope of normalised read count over time)); higher = stronger growth at 37°C, i.e. more transactivation activity). Details: library: random library.
MCKSYSQGASPRICQDEHQS was tested, and the growth estimate was less than -0.25. MCPINLKGTCVLTCRKLWRA was tested, and the growth estimate was less than -0.25. Substance MCSPTETVGAPPKSHVRSLP has a growth estimate of less than -0.25. For MCSVNSSWSAIRKA, the growth estimate was less than -0.25. With MCVEADVGYVRRVLSLPRTR the growth estimate was less than -0.25. Work on MCVEYSAIGASAQAKNVGRQ yielded a growth estimate of less than -0.25. In the case of MCVQLQWAGLWGVHG, the growth estimate was less than -0.25. MCWSTTDLCWS was tested, and the growth estimate was less than -0.25. For MCYRG, the growth estimate was less than -0.25. Substance MDAWVLEAPIWPRRRHVAQG has a growth estimate of 0.0588. MDEARKDASFMEADSVGQLY showed a growth estimate of less than -0.25. With MDEIFWFGESRVPLAAVQSG the growth estimate was less than -0.25. MDLR was tested, and the growth estimate was less than -0.25. In the case of MDRGYHHHLVESIYNLLIKP, the growth estimate was less than -0.25. Substance MDST has a growth estimate of less than -0.25. MDVVLTSLFGF was tested, and the growth estimate was less than -0.25. Substance MELGIF has a growth estimate of less than -0.25. For MEMTMAVQQRRIHDRPLFGK, the growth estimate was -0.244. Work on MERQIIIRRPSGVTEYPSLE yielded a growth estimate of less than -0.25. Work on MFARSPQGARDQGVEVHRDR yielded a growth estimate of less than -0.25. For MFGWVKVLPLHMRCT, the growth estimate was less than -0.25. For MFHPDLSSAR, the growth estimate was less than -0.25. Work on MFRFLKETWR yielded a growth estimate of -0.243. In the case of MFSHLLKSSGSPIRIEYPLS, the growth estimate was less than -0.25. MFV was tested, and the growth estimate was less than -0.25. Work on MFVFYSRDRFRHLYVRTTDV yielded a growth estimate of less than -0.25. MGACFTCSASFFELRGYS gave a growth estimate of less than -0.25. For MGCDIPFHTVLVKRTSVSRV, the growth estimate was less than -0.25. MGGGERTGAELDMC was tested, and the growth estimate was less than -0.25. In the case of MGGRCNSAFVNSKMIIAADV, the growth estimate was less than -0.25. Substance MGIEVTTVLDIPQSLC has a growth estimate of less than -0.25. Work on MGKGQCKGCTNRVLYYATTS yielded a growth estimate of less than -0.25. MGLC gave a growth estimate of less than -0.25. MGLKRARWFTPLIRWPRYTP gave a growth estimate of less than -0.25. MGLSRVGNYDT showed a growth estimate of less than -0.25. MGQLSVIRLWSWTPTVGV showed a growth estimate of less than -0.25. For MGSAQRRCTLISTWDPEH, the growth estimate was less than -0.25. MGSATIGRLRGFS showed a growth estimate of less than -0.25. MGSLGVQSGRGSHFRRHADG was tested, and the growth estimate was less than -0.25. For MGYRHRRLQGSKTQSILLSF, the growth estimate was less than -0.25. For MHA, the growth estimate was less than -0.25. MHGFLSSDNKEYLGGDSTLI gave a growth estimate of -0.248. MHIRRDPFLCRSIRSGDRPR showed a growth estimate of less than -0.25. Work on MIAMFINTRHRDVANLSLSQ yielded a growth estimate of less than -0.25. Work on MIEAGRSPVASTYVWDLGNY yielded a growth estimate of less than -0.25. MIIGQK was tested, and the growth estimate was less than -0.25. MIRLF was tested, and the growth estimate was less than -0.25. MITQWHSRGPL was tested, and the growth estimate was less than -0.25. Work on MIVKTIVGLRPRPYPGLLKH yielded a growth estimate of less than -0.25. MIVTSSNARWLPLTSAVKAR gave a growth estimate of less than -0.25. Work on MKALVVHAGRGQLDI yielded a growth estimate of less than -0.25. MKDS was tested, and the growth estimate was less than -0.25. MKLDHELRTQVGNPLHFADR gave a growth estimate of less than -0.25. Work on MKWRHVEDRGT yielded a growth estimate of less than -0.25. MKYSLTR was tested, and the growth estimate was less than -0.25. For MKYWRIISLGENQAGVVFSA, the growth estimate was less than -0.25. For MLC, the growth estimate was less than -0.25. Substance MLHHGVYMILRVVPEVLFFG has a growth estimate of less than -0.25. MLLR gave a growth estimate of less than -0.25. With MLPKELQPVTTWP the growth estimate was less than -0.25. For MLQPRRCC, the growth estimate was less than -0.25. MLVVSRWDASGPKGVVRTQG was tested, and the growth estimate was less than -0.25. MLYVYMSILSEESTNVRGTR was tested, and the growth estimate was less than -0.25. MMLL gave a growth estimate of less than -0.25. For MMRAHGTSRGSSVLGLPPHA, the growth estimate was less than -0.25. MMSCLSTVSPTVRNLPASPR gave a growth estimate of -0.231. For MMTLIRRILIPVRPNPLYLR, the growth estimate was less than -0.25. Substance MNGCSGEGKGDLRWSWGSAP has a growth estimate of less than -0.25. Work on MNKKWASHPERSCLAYV yielded a growth estimate of less than -0.25. MNNVTVGKCRLRQTMGFPRT gave a growth estimate of less than -0.25. MNSSGLESGGPSVTSGMLRP was tested, and the growth estimate was less than -0.25. Substance MNTPASPSTGILALGYIKVF has a growth estimate of -0.248. Work on MPFSIARASTVPYYS yielded a growth estimate of -0.217. For MPGDPVRNV, the growth estimate was less than -0.25. MPGVLGIDGPGLLDKHLIAV showed a growth estimate of less than -0.25. With MPHMRALA the growth estimate was less than -0.25. Work on MPLRRSSICHIRAESKRGVS yielded a growth estimate of less than -0.25. In the case of MPMGVS, the growth estimate was less than -0.25. With MPNTKYWRIGPAKV the growth estimate was less than -0.25. With MPPVME the growth estimate was less than -0.25. Work on MPQ yielded a growth estimate of less than -0.25. With MPTNRITRDPWTHPIC the growth estimate was less than -0.25. Substance MPVILRRKLGRSRI has a growth estimate of less than -0.25. MQGDRWQAARDEAPDTSFF showed a growth estimate of less than -0.25. For MQHVFTSIRDLATHRAK, the growth estimate was less than -0.25. For MQITQNAEEGGVRYMSSGSA, the growth estimate was less than -0.25. In the case of MQLGPSSSVHRPRASHPSTP, the growth estimate was less than -0.25. For MQLHRTRFYPSLVGQFWQS, the growth estimate was less than -0.25. MQLYHAGIQAHLPKCMSTLG was tested, and the growth estimate was less than -0.25. In the case of MQNRAGPGGVRHTGLLVNPY, the growth estimate was less than -0.25. Work on MQRFGAYIGRQPARAALSSG yielded a growth estimate of less than -0.25. Substance MQRIGERPHWEKDPELHKVP has a growth estimate of less than -0.25. MRAVLNLRRQQSTAGRSPA was tested, and the growth estimate was less than -0.25. In the case of MRGAAAEEMGSSVEKLEKWV, the growth estimate was less than -0.25. MRGILSVWLLTGVCVRFNYL gave a growth estimate of less than -0.25. Work on MRGRMEVETTI yielded a growth estimate of less than -0.25. With MRLVCLNLYLKAAFVLYSQK the growth estimate was less than -0.25. In the case of MRMAQDRTLGYAYAVPCSF, the growth estimate was less than -0.25.
